Results from patent US20260201015A1.
These are yes or no findings as the source states them, for the method shown. Some results given as binding are weak or reduced against the parent protein; the word gives no strength.

Sequences of proteins named here, by UniProt entry; tags and fusion partners are left off. Residues count along the entry.
UniProt P12272, residues 37-70: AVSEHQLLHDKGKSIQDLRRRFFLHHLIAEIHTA

Molecular target: PTH related peptide (PTHrp) (UniProt P12272)
Experiment: fluorescence polarization

binding: binds
B1: PTH_B10 (RFjoint), inpainted PTH binder, SEQ ID NO: 2 (designed binder)
chain: SFELLEKLIELSKELYEVAKKYIETGDPELKKKLEEILKKIEEAYKELLESDAHPLEKALAKLILAEAYVVKSFAYISSGKDLEKAQEYLDKAKEILEELLKLLEELKKEETDPEKLEIIEELEKIAEELLKEIEE
